Publication PMC12040169 (PLOS Biology, 2025)
Read-outs that look alike come from different tables or passages of the source. The list shows a part of the results.

System: T1, CTL2-GFP (C. trachomatis L2/434/Bu, GFP-expressing)
T1 construct: L2/434/Bu, GFP-expressing
Set-up: species or system HeLa; Intracellular C. trachomatis growth in HeLa cells, bulk GFP fluorescence relative to DMSO
Settings: bulk GFP, single well, 28.5 h, 10 µM, inhibitor

| Compound | % of control remaining [%] | % of control remaining (Bulk GFP fluorescence) [%] |
| --- | --- | --- |
| O=C(CN1C(=O)C2CCC(c3ccccc3)CC2C1=O)Nc1cccc2ccccc12 (stereo not shown) [CBK268061] | 122.319 |  |
| CCOC(=O)C1CCCN(Cc2nc(-c3ccc(F)cc3F)oc2C)C1 (stereo not shown) [CBK306749] | 103.487 |  |
| c1ccc(CC2CCN(CCOc3ccccc3)CC2)cc1 [CBK126433] | 107.872 |  |
| Cc1cccc(C)c1NC(=O)CN1CCN(c2nccnc2OC2CCCCC2)CC1 [CBK082835T] | 108.726 |  |
| S=C(Nc1cccc(Cl)c1Cl)Nc1nn(Cc2ccc(Cl)c(Cl)c2)cc1Cl [CBK267109] | 145.053 |  |
| CN(C)CCOC1OC(CO)C(O)C(O)C1O (stereo not shown) [CBK012476C] | 104.872 |  |
| CC(C)(C)NC(=O)c1cccc(N2C(=O)c3ccc(C(=O)O)cc3C2=O)c1 [CBK287123] | 128.888 |  |
| COC(=O)c1ccc(N2CCN(Cc3nc(C)no3)C(C)C2)cc1 (stereo not shown) [CBK305998] | 110.588 |  |
| O=C(N/N=C/c1ccc(Cl)cc1Cl)c1nc(-c2ccccc2)cc(-c2ccccc2)n1 [CBK262814] | 110.42 |  |
| CC(=O)Nc1nn(Cc2cc3c(cc2Cl)OCO3)c2ccccc12 [CBK048251] | 100 |  |
| CCc1cccc(C)c1NC(=O)C1C2CCC(O2)C1C(=O)O (stereo not shown) [CBK263676] | 119.48 |  |
| COc1ccc(S(=O)(=O)NCCNC(=O)c2cc(-c3cccc(S(C)(=O)=O)c3)cnc2NCC2CC2)cc1 [CBK076425] | 104.973 |  |
| CN1CCC[C@H]1C(=O)Nc1cccc2cc[nH]c12 [CBK160098] | 134.704 |  |
| O=C(NCCCc1ccccn1)C1(c2ccccc2F)CC1 [CBK283155] | 97.91 |  |
| c1cncc(COc2cncc(OC3CCN(Cc4ccc5c(c4)OCO5)C3)n2)c1 (stereo not shown) [CBK084458] | 100 |  |
| Cc1cccc(OC(=O)C2C(c3ccccc3)C(C(=O)O)C2c2ccccc2)c1 (stereo not shown) [CBK263843] | 110.784 |  |
| O=C(Nc1ccc(S(=O)(=O)Nc2nccs2)cc1)C1CC(=O)N(c2ccccc2)C1 (stereo not shown) [CBK264732] | 29.6109 |  |
| COc1cc(Cl)cc(/C=N/Nc2nc(Nc3ccc(C)c(Cl)c3)nc(N3CCOCC3)n2)c1O [CBK262436] | 100 |  |
| CN1CCN(S(=O)(=O)c2ccc(-c3cc(C(F)(F)F)on3)s2)CC1 [CBK057780] | 110.778 |  |
| Cc1nn(C)c(Cl)c1S(=O)(=O)Nc1cccc(-c2nnn[nH]2)c1 [CBK062127] | 114.817 |  |
| O=C(Nc1cccc(F)c1)N(Cc1cccnc1)CC1CCCO1 (stereo not shown) [CBK304065] | 88.579 |  |
| CC(C)c1noc(N2CCC(Oc3ccc(-c4ccc(S(C)(=O)=O)cc4)cn3)CC2)n1 [CBK158821] | 75.3558 |  |
| COc1ccc(CCN2C(=O)c3ccccc3C2(O)c2ncc[nH]2)cc1OC (stereo not shown) [CBK262717] | 97.407 |  |
| Cc1cccc(C(=O)Nc2ccccc2C(=O)N2CCN(C)CC2)c1 [CBK268565] | 128.687 |  |
| O=C(NC(NCc1ccco1)C(Cl)(Cl)Cl)c1ccc(Br)cc1 (stereo not shown) [CBK262174] | 94.014 |  |
| COCCNC(=O)c1cc(-c2ccc(Cl)cc2)cnc1NS(C)(=O)=O [CBK106421] | 100 |  |

Entries of single compounds, looked up by structure:
CCc1cccc(C)c1NC(=O)C1C2CCC(O2)C1C(=O)O (stereo not shown) [CBK263676] in the list: % of control remaining [%]: 119.48
COc1ccc(CCN2C(=O)c3ccccc3C2(O)c2ncc[nH]2)cc1OC (stereo not shown) [CBK262717] in the list: % of control remaining [%]: 97.407
Cc1cccc(OC(=O)C2C(c3ccccc3)C(C(=O)O)C2c2ccccc2)c1 (stereo not shown) [CBK263843] in the list: % of control remaining [%]: 110.784
CN1CCC[C@H]1C(=O)Nc1cccc2cc[nH]c12 [CBK160098] in the list: % of control remaining [%]: 134.704

Following part.

| Compound | % of control remaining [%] | % of control remaining (Bulk GFP fluorescence) [%] |
| --- | --- | --- |
| OC1(c2cccnc2F)CCN(Cc2c(F)cccc2F)CC1 [CBK283149] | 89.5052 |  |
| Cc1ccc(S(=O)(=O)NCC(=O)Nc2ccc(Cl)nc2)cc1 [CBK091355] | 115.576 |  |
| O=c1[nH]c2ncc(-c3ccsc3)nc2n1CC1CCOCC1 [CBK064293] | 186.121 |  |
| CS(=O)(=O)N1CC2(CCN(CCCC#N)CC2)c2ccccc21 [CBK084014] | 112.67 |  |
| COc1ccc(C2C(C(C)=O)=C(O)C(=O)N2CCCC(=O)O)cc1 (stereo not shown) [CBK263774] | 100 |  |
| COc1ccc2c(c1)N1CCCN=C1N2C [CBK011358C] | 135.842 |  |
| COc1ccc([N+](=O)[O-])cc1COc1ccc2c(C(F)(F)F)cc(=O)oc2c1 [CBK265173] | 119.355 |  |
| Cc1cc(-c2ccccc2)nc(SCC(=O)Nc2nnc(C)s2)n1 [CBK058194] | 123.006 |  |
| CC(Sc1nc(C2CC2)n(-c2ccccc2)n1)C(=O)N1CCNC1=O (stereo not shown) [CBK297144] | 153.092 |  |
| O=C(Nc1cccnc1)c1cnc2cc(C(F)(F)F)ccc2c1O [CBK107474T] |  | 110.979 |
| Cc1ccc(CN(CCCN(C)C)Cc2cccc(O)c2)o1 [CBK283173] | 84.5986 |  |
| COc1ccc(-c2noc(CNC(=O)Nc3ccc(F)cc3)n2)cc1OC [CBK269784] | 122.898 |  |
| O=C(Nc1cccc(C(=O)O)c1)/C(=C\c1ccc2c(c1)OCO2)NC(=O)c1ccccc1Cl [CBK263746] | 100 |  |
| CCn1c2c(c(=O)[nH]c1=O)C(c1ccccc1)C1=C(COC1=O)N2 (stereo not shown) [CBK287704] | 122.171 |  |
| CC(C)OC(=O)c1cccnc1N1CCN(CCCC(c2ccc(F)cc2)c2ccc(F)cc2)CC1 [CBK025340C] | 103.659 |  |
| CCCc1cc(=O)nc(N/C(=N\C(=O)c2ccccc2)Nc2ccc3c(c2)OCCO3)[nH]1 [CBK266485] | 88.077 |  |
| CCc1c(C)nc2c(C(=O)NCCCOC)cnn2c1C [CBK162149] | 128.043 |  |
| O=C(NC(c1ccc(-c2ccccc2)cc1)c1cnccn1)C1CCN(CCc2ccc(F)cc2)CC1 (stereo not shown) [CBK147981] | 124.095 |  |
| Cc1ccc(S(=O)(=O)NC(C)C(=O)Nc2cc(-c3nc4ccccc4[nH]3)ccc2C)cc1 (stereo not shown) [CBK110320] | 117.342 |  |
| CCOC(=O)c1cnn2c(O)cc(CN(Cc3cccs3)C3CC3)nc12 [CBK305625] | 138.816 |  |
| COc1ccc(-c2nnc([C@H]3CCN(C(=O)C4CC4)C3)o2)cc1 [CBK289409] | 111.506 |  |
| CCCCCn1c(Cc2ccccc2)n[nH]c1=O [CBK013059] | 135.008 |  |
| CC(C(=O)N1CCC(O)(c2ccccn2)CC1)c1ccccc1 (stereo not shown) [CBK282396] | 160.905 |  |
| CCCCOc1ccc(-c2nnn(CC(=O)Nc3ccccc3)n2)cc1 [CBK070609] | 106.305 |  |
| COc1ccc(Br)cc1C1CC(=O)Nc2c(-c3cccc(F)c3)csc21 (stereo not shown) [CBK294442] | 23.7031 |  |
| CC(O)CNCCNc1c(Cl)cccc1[N+](=O)[O-] (stereo not shown) [CBK262802C] | 118.104 |  |

| Compound | % of control remaining [%] | % of control remaining (Bulk GFP fluorescence) [%] |
| --- | --- | --- |
| CCOC(=O)c1c(-c2ccc(C)o2)csc1NC(=O)CN1C(=O)c2ccccc2C1=O [CBK267699] | 136.069 |  |
| COC(=O)CCc1ccc(S(=O)(=O)N2CCN(Cc3cc(C)c(O)c(C)c3)CC2)cc1 [CBK062814] | 123.087 |  |
| Cc1c(Nc2nc3nonc3nc2Nc2cccc(Cl)c2)c(=O)n(-c2ccccc2)n1C [CBK263073] | 103.703 |  |
| CCN(CC)C(=O)c1sccc1NS(=O)(=O)c1cc(Br)c(Cl)s1 [CBK004599] | 73.2066 |  |
| N#Cc1ccc(Oc2ccc(C(=O)C(=O)c3ccccc3)cc2)cc1C#N [CBK260959] | 84.0959 |  |
| O=C(NC(=S)Nc1cccc(-c2nc3ncccc3o2)c1)c1cc([N+](=O)[O-])ccc1N1CCOCC1 [CBK268756] | 118.217 |  |
| COc1ccc(CN2CCCN(C(=O)c3ccc(F)cc3Br)CC2)cc1 [CBK251752] | 93.9788 |  |
| Cc1cccc(C)c1NC(=O)CN1CCC(Oc2cncc(OCc3cccnc3)n2)C1 (stereo not shown) [CBK084460] | 97.3821 |  |
| COC(=O)[C@H]1CN(C(=O)c2ccco2)C[C@@H]1c1ccc(F)cc1 [CBK283733] | 120.858 |  |
| COc1ccc2cc(C(=O)N3CCn4cncc4C3)n(C)c2c1 [CBK304362] | 109.921 |  |
| CCC(CO)NCc1ccc(-c2ccccc2)cc1 (stereo not shown) [CBK268082C] | 113.096 |  |
| CN(C)C(CNCc1cn(C)nc1-c1cccnc1)c1ccccc1 (stereo not shown) [CBK304511] | 133.668 |  |
| CCC(C)Nc1nc(SCC(=O)OC)nc(N(C)C)n1 (stereo not shown) [CBK269780] | 117.941 |  |
| CC(=O)NC[C@H]1CN(c2ccc3c(c2)CCN(C(C)=O)CC3)C(=O)O1 [CBK018491] | 10.4848 |  |
| COc1ccc([C@@]23CC[C@@H](NC(=O)c4ccc(C(F)(F)F)c(F)c4)C[C@@H]2CN(C)C3)cc1OC [CBK082742C] | 120.321 |  |
| CC(=O)NC1(c2ccc(F)cc2)CCN(Cc2cccnc2)CC1 [CBK283610] | 117.379 |  |
| O=C([C@@H]1C[C@@H](O)[C@H](O)[C@@H]2NC(=S)N(c3ccc4c(c3)OCO4)[C@@H]21)N1CCCCC1 [CBK288945] | 124.33 |  |
| C[S+]([O-])CCNC(=O)c1cnn(-c2ccc(F)cc2)c1 (stereo not shown) [CBK283245] | 117.931 |  |
| CCn1c(=O)n(CC(=O)N2CCc3ccccc32)c2cccnc21 [CBK283826] | 140.985 |  |
| O=C(O)C1CSC(c2cc3ccccc3o2)N1 (stereo not shown) [CBK019502] | 100.403 |  |
| Nc1ncc(-c2cccc3ccccc23)nc1Nc1ccc2[nH]ccc2c1 [CBK063659] | 186.934 |  |
| C#CCNS(=O)(=O)c1ccc(C(=O)Nc2ccnn2Cc2ccccc2)cc1 [CBK297727] | 122.062 |  |
| O=C(O)C1CCN(C(=O)c2ccc3nsnc3c2)CC1 [CBK057344] | 118.776 |  |
| Cc1cc(S(=O)(=O)N(CCC#N)c2ccccc2)c(C)cc1Cl [CBK043618] | 144.51 |  |
